## Results of single-concentration screens

By UniProt entry, the sequences of proteins in these tests, tags left out.
UniProt P9WNZ1, whole entry: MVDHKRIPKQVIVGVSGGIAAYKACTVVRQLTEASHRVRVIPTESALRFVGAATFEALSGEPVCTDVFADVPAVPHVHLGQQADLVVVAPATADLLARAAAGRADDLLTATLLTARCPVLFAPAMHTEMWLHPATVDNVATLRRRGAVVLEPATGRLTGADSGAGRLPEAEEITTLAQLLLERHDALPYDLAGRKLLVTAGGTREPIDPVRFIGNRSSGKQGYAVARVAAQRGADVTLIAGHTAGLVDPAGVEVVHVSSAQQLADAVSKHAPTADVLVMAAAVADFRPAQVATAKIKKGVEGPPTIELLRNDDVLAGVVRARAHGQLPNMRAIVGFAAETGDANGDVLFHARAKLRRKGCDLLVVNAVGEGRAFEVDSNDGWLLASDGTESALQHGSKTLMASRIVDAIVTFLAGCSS
UniProt P9WFT3, whole entry: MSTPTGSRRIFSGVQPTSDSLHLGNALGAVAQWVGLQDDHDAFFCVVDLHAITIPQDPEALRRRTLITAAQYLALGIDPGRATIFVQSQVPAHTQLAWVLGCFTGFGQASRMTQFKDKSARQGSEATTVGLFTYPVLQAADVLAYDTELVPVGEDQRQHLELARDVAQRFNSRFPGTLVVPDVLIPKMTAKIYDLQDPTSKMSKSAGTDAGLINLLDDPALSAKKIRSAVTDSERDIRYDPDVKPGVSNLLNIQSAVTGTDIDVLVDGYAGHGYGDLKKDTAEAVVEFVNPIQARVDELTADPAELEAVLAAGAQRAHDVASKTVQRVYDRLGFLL

Data taken from ChEMBL document CHEMBL3988442, “University of Dundee, Small-Polar-MMV Screening Library” (2021).

The filed quantity is “Percent Effect” (%). The record does not define 0% and 100%; most values in the screen are far below 50% and negative numbers occur (in some assays of this library far below -100). Compounds were drawn at random from those tested, without regard to their results. Two or more numbers in one place are separate tests of the same structure; such repeats can differ widely. A dash means the value is not listed here; it may have been measured.

CoaBC: 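Enzyme assay of CoaBC with a phosphate dye (Biomol Green) read at 650 nm. Target: Coenzyme A biosynthesis protein CoaBC, Mycobacterium tuberculosis (UniProt P9WNZ1). Concentration: 30 µM. Higher reads as stronger inhibition, judged from the few compounds that gave an IC50. Most strong results did not repeat in a second test. About 67,000 compounds were tested under these conditions; 0.06% (about 40) showed 50% or more at least once.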
MtTrpRS: 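Tryptophan-tRNA ligase, Mycobacterium tuberculosis (UniProt P9WFT3). Enzyme assay of tryptophanyl-tRNA synthetase; the read-out is not stated. Compounds at 10 µM. Higher most likely means stronger inhibition; the record gives no direction and few retests gave an IC50. About 65,000 compounds were tested under these conditions; 0.098% (about 64) showed 50% or more at least once.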

| # | compound | CoaBC | MtTrpRS |
|---|---|---|---|
| 1 | `CSc1nnc(CNC(=O)Nc2ccccc2F)n1C` | -3.589 | -4.688 |
| 2 | `CC(=O)N1CCCN(Cc2ccon2)c2ccccc21` | -2.552 | 2.039 |
| 3 | `Cc1nc(Cn2c3c(ccc2=O)CC(NC(C)C)CC3)cs1` (centres unmarked) | 2.475 | - |
| 4 | `CN(C)c1cccc(C2CCCN2S(=O)(=O)c2cn(C)cn2)n1` (centres unmarked) | 3.09 | -1.098 |
| 5 | `CCc1ccc(C(C)NCc2nccn2Cc2ccccc2)o1` (centres unmarked) | 8.73 | -3.177 |
| 6 | `COC1COC2(CCN(Cc3ccc4c(c3)OCO4)CC2)C1` (centres unmarked) | 7.079 | -0.5814 |
| 7 | `COc1ncc(C(=O)N(Cc2cnn(C)c2)C(C)C)cn1` | -7.506 | 3.118 |
| 8 | `COC(=O)c1ncccc1N1CCN(C(=O)CN2CCOCC2)CC1` | 2.893 | 1.905 |
| 9 | `O=C(c1ccccc1F)N1CC(c2nc(-c3ccc[nH]c3=O)no2)C1` | 7.4 | 0.3799 |
| 10 | `Cc1ccc(-c2nc(C(=O)N3CCOCC3)cs2)c(C)c1` | 9.091 | 3.967 |
| 11 | `CC1CCCN(c2ncc(C(=O)NCc3ccc(F)c(Cl)c3)c(N)n2)C1` (centres unmarked) | 4.982 | -1.768 |
| 12 | `CCN(Cc1ccoc1)c1ncc(S(N)(=O)=O)s1` | 5.276 | 2.056 |
| 13 | `CCOC1CCCN(C(=O)Nc2cnn(CC(F)F)c2)C1` (centres unmarked) | -3.212 | -5.31 |
| 14 | `Cc1ccc(-c2nnc(CN3CCOCC(CO)C3)o2)n1C` (centres unmarked) | -2.008 | -1.547 |
| 15 | `CC(C)[C@H](N)c1nnc(SCC(=O)Nc2ccc(Br)cc2)o1` | 4.051 | -1.568 |
| 16 | `Cc1ccc2[nH]c(=O)c(CNCCCN3CCOCC3)cc2c1` | 0.2451 | - |
| 17 | `Cc1cc2c(c(=O)n1CCC(=O)O)C=CC(C)(C)O2` | -16.99 | -1.621 |
| 18 | `O=C(C1CCCC1)N1CCC(C(O)c2ccc(F)cc2)CC1` (centres unmarked) | 7.391 | 2.023 |
| 19 | `Cc1cc(C)c(C(=O)NC2CCN(c3ncccc3C#N)CC2)c(=O)[nH]1` | 4.263 | -1.718 |
| 20 | `CCn1cc(CN2CCCN(C(=O)c3sccc3C#N)CC2)cn1` | 1.542 | -1.18 |
| 21 | `Cn1ccc(C(=O)NCC2(O)CCN(c3cnccn3)C2)n1` (centres unmarked) | 3.11 | -6.38 |
| 22 | `Cc1noc(C)c1C(=O)N1CC[C@H]2C[C@@H](c3nccs3)O[C@@H]2C1` | 3.218 | 2.397 |
| 23 | `COc1nsc2nc(C3CCCN3c3ncccn3)ccc12` (centres unmarked) | -7.506 | -5.418 |
| 24 | `O=C(NCCNc1ncccn1)N1CC=C(c2ccccc2)CC1` | 8.73 | 2.916 |
| 25 | `CC(C)C(C)NC(=O)Nc1ccc(CC(N)=O)cc1` (centres unmarked) | 5.929 | -2.036 |
| 26 | `CCN1CCC2(CCN(Cc3nccs3)CC2)C1=O` | 1.29 | -3.625 |
| 27 | `Cn1ccc2c(NC(=O)Cn3ncc4c(c3=O)CCCCC4)cccc21` | 3.538 | -4.157 |
| 28 | `CCN1CCCC1Cn1ccc2c(OC)c(OC)ccc2c1=O` (centres unmarked) | 4.234 | -2.624 |
| 29 | `Cc1c(C)n(CC(O)CN2CCCCCC2)c2c(Cl)cccc12` (centres unmarked) | 0.3764 | -3.233 |
| 30 | `CN(C)C(=O)CC1CC2(CCN(Cc3cccs3)CC2)c2ccccc21` (centres unmarked) | 8.772 | 2.628 |
| 31 | `COCc1nc(C2CCN(Cc3ncc[nH]3)CC2)no1` | -0.2433 | -3.536 |
| 32 | `COCc1cccc(NC(=O)N(C)Cc2ncc(C)c(OC)c2C)c1` | 0.7371 | -0.3846 |
| 33 | `Cn1cc(C2CCCN2CC(=O)N(CCC#N)Cc2ccco2)cn1` (centres unmarked) | 1.491 | 0.3303 |
| 34 | `CCc1csc(CNC2CCN(c3ccc(C)cc3)CC2)n1` | -2.644 | 0.1142 |
| 35 | `CC(C)(C)NC(=O)C1CSCN1C(=O)CCc1ccco1` (centres unmarked) | -0.9709 | -5.176 |
| 36 | `Cc1cc(S(=O)(=O)N2CCCc3cc(Br)ccc32)sc1C(=O)O` | -11.57 | -1.376 |
| 37 | `COCc1ccc(C(=O)N2CC[C@H](O)[C@@H](n3ccnc3)CC2)cc1` | 4.116 | - |
| 38 | `O=C1N(c2cccc(F)c2)Cc2nc(=O)n(Cc3ccccc3Cl)n21` | 0.3632 | -1.711 |
| 39 | `COCc1cncc2c1CCN(C(=O)c1cccc(C#N)c1)C2` | -1.238 | - |
| 40 | `O=C(c1cc2c(F)cccc2[nH]1)N1CCC(Nc2cccnn2)CC1` | 0.8149 | -7.062 |
| 41 | `CS(=O)(=O)c1ccc(CN2C[C@H]3CC[C@@H]2CN(c2ncccn2)C3)cc1` | -3.175 and 47.72 | 4.063 |
| 42 | `CNS(=O)(=O)c1ccc(CNC(=O)Nc2cc(C)on2)s1` | 5.063 | -0.2337 |
| 43 | `Cc1cc(C(N)=O)ccc1NC(=O)c1nc(N2CCCCC2)ncc1Cl` | 3.024 | -4.44 |
| 44 | `Cc1nn(C)cc1C1SCC(=O)Nc2c1c(O)nn2C(C)C` (centres unmarked) | 0.5063 | -2.522 |
| 45 | `O=C1c2c(O)cc(O)cc2O[C@@H](c2ccc(O)cc2)[C@@H]1O` | -3.175 and 26.41 | -0.8283 |
| 46 | `CCc1ccc(CN2CCN(c3cccc(OC)c3)C(=O)C2)nc1` | 2.527 | -0.8804 |
| 47 | `CC(C)N1Cc2c(C(=O)N3CCN(C)CC3)nn(C)c2C1` | 0.7407 | - |
| 48 | `O=C1C[C@H]2[C@@H](CCN2C(=O)c2cscn2)N1Cc1cccnc1` | 6.049 | -5.814 |
| 49 | `Cc1cccnc1CC(C)Nc1ncc(C)c(N(C)C)n1` (centres unmarked) | -10.45 | -3.971 |
| 50 | `Cn1cc(Br)c(=O)c(NS(=O)(=O)c2ccc(Cl)cc2)c1` | 8.955 | 6.473 |
| 51 | `Cn1nc(Cn2ccnc2)c2c1CN(c1ncccn1)C2` | -1.48 | -4.44 |
| 52 | `COc1ccc(NC(=O)C2OC(c3cccs3)=NN2C(C)=O)cc1` (centres unmarked) | -1.214 | - |

Some entries from above, unchanged:

compound	CoaBC	MtTrpRS
COCc1nc(C2CCN(Cc3ncc[nH]3)CC2)no1	-0.2433	-3.536
O=C1c2c(O)cc(O)cc2O[C@@H](c2ccc(O)cc2)[C@@H]1O	-3.175 and 26.41	-0.8283
CCn1cc(CN2CCCN(C(=O)c3sccc3C#N)CC2)cn1	1.542	-1.18
CNS(=O)(=O)c1ccc(CNC(=O)Nc2cc(C)on2)s1	5.063	-0.2337
CSc1nnc(CNC(=O)Nc2ccccc2F)n1C	-3.589	-4.688
CC(C)(C)NC(=O)C1CSCN1C(=O)CCc1ccco1 (centres unmarked)	-0.9709	-5.176
CC(=O)N1CCCN(Cc2ccon2)c2ccccc21	-2.552	2.039